Measurements reported in US20110201688A1, “N,N'-DI-P-BROMOPHENYL GUANIDINE TREATMENT FOR STROKE AT DELAYED TIMEPOINTS” (UNIVERSITY OF SOUTH FLORIDA, priority 2008, published 2011).

Tested on: cortical neurons
Test: Inhibition of [Ca2+]i increases evoked by acidosis (pH 6.0) in cortical neurons
Format: cell-based, rat
Conditions: acidosis pH 6.0, cortical neurons, n>50
Protocol: Concentration-response relationship for p-Br-DPG and DTG inhibition of [Ca^2+]i increases evoked by acidosis (pH 6.0).
The effects of sigma receptors on ischemia-induced changes in intracellular calcium concentrations were studied in cultured cortical neurons from embryonic (E18) rats. Dams were euthanatized by decapitation, uterus removed, and embryos dissected out and placed in isotonic buffer containing 137 mM NaCl, 5 mM KCl, 0.2 mM NaH2PO4, 0.2 mM KH2PO4, 5.5 mM glucose, 6 mM sucrose (pH 7.4 with NaOH). Cortex were excised and minced, and tissue digested in isotonic buffer containing 0.25% trypsin/EDTA for 10 min at 37° C. and added to 3× volume of high glucose culture media (Dulbecco's Modified Eagle Media; Invitrogen, Inc., Carlsbad, Calif.), 10% (v/v) fetal calf serum, 100 U/ml penicillin and 0.1 mg/ml streptomycin. Cells were counted on a hemocytometer, plated (0.5×10^6 cells) on 18 mm coverslips coated with poly-1-lysine, and incubated at 37° C. under a 95% air, 5% CO2 atmosphere. After 24 hr the media was replaced with Neurobasal (Invitrogen, Inc., Carlsbad, Calif.) medium supplemented with B27 (Invitrogen, Inc., Carlsbad, Calif.) and 0.5 mM 1-glutamine to limit astrocyte proliferation in the cultures. Cells were used for studies after 14-21 days in culture. […]

Row | SMILES | Hill coefficient for inhibition of [Ca2+]i increases evoked by acidosis
1 | Cc1ccccc1NC(=N)Nc1ccccc1C [DTG, N,N′-di-o-tolyl guanidine, reference compound] | 0.9
2 | N=C(Nc1ccc(Br)cc1)Nc1ccc(Br)cc1 [p-Br-DPG, N,N′-di-p-bromophenyl guanidine] | 1.2
